In publication PMC12979858:
No constants are given. Whether binding was seen depends on the method and setting. In cells and extracts the contact can be indirect. Here binding means that the protein was enriched with, or labelled near, the bait; the list need not be complete. Where a sequence is shown, tags or fusion partners need not be part of it.

Sequences of proteins named here, by UniProt entry; tags and fusion partners are left off.
UniProt Q8CGF6: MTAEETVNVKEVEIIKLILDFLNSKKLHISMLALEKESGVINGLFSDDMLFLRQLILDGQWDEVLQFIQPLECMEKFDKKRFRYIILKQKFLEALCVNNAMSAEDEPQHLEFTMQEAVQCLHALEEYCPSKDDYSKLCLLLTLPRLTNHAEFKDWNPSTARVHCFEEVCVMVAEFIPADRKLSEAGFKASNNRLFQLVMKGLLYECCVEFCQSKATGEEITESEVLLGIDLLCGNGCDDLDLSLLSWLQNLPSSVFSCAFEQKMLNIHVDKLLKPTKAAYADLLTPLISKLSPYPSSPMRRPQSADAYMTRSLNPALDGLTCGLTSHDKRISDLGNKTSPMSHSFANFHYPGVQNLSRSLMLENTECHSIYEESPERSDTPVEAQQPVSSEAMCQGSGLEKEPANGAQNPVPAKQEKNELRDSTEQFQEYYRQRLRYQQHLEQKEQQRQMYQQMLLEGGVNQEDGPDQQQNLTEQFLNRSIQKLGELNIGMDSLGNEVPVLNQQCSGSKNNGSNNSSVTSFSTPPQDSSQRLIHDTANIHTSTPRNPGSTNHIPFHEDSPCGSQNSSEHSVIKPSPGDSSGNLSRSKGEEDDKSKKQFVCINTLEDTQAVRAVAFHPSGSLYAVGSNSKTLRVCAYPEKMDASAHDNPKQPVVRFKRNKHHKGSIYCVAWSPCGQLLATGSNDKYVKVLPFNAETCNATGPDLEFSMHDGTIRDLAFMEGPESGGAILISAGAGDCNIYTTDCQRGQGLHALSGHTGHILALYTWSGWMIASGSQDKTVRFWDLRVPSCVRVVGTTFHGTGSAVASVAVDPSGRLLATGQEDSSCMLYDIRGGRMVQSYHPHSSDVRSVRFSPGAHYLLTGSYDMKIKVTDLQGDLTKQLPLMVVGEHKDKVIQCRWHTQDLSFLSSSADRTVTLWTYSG

Target: APEX2-WDR47 (mouse) (UniProt Q8CGF6)
Assay: proximity labelling; APEX2-WDR47 expressed in mEPCs by adenovirus; 500 uM biotin-phenol at 37 C for 30 min, 1 mM H2O2 for 1 min; lysis in RIPA buffer, biotinylated proteins on streptavidin-conjugated agarose beads, shotgun mass spectrometry; cutoff >= twofold peptide ratio against the mock-treated control

binding	Binder
binds	MYCBPAP (protein, UniProt Q5SUV2 1-932) MMKKITERQSPLKLLEKKRAKAPEQPTPPIQEEPEPVSNVLQGDDILALAIKKEDLRKQHVPQFEETGEKPVVTQKFIIRKLKPKDSSKRVYHLVAHPATPDAATKPLDYSGPHDSFLSSGQILPHQILGSLQDFKRIAVARGNTQLAKLIHIQPCLMTLISAKEEPKPKPPKEEERPSPWAPPPQHNFLKNWRRHIALRKKQQEALSKHLKKPASELLMHTGESYRKIQEEREVIDRALPTQHDGKATSWFWSPLEYLGDEMTGLLMTKKKTQRGLVEPITHIRKPLSIQVETGLPAQKDAWYRYTWDRSLFLIYRRKELQSIMAELDFSQQDIDGLEVVGHGKPFSSVTVEEHLPPEKIQKSSSEDTVFLDSLTNLSDMVPMPILGPSLLFCGKPACWVRGSNPEDKKNIGIGVRLTFETLEGERTSSELTVVNNGTVAIWYNWRRRPHQDFFQDLKQNKTQRFYFNNREGVILPGETKHFTFFFKSLNAGIFRESWEFGTHPTLLGGAVLQVTLHAISLTQDIFMDERKLLETKLAAHEAITIAQSVLQDLLRGISTPERTPSPVDAYLTEEDLFNYRNPRLHYQHQVVQNLHQLWQQYRKAKATQKETPSLRTPVPLLLVEKASGSISPRNLVSEYSQLSPHQEMDTARKTRDFFLSLKSSIGKKSVARKSIMEELLVEEGPDRETTQRPWALKSISPPKWNLCLEDFRQAVMTFPEELQREDALIQLNKAAMELCQEQKPLQSDLLYQMCLQLWRDVIDSLVSQSLWLRNLLGLPEKETVYLDLPDEQGQKSPPVTESKVTSGKAGKEDRRGGAQEKKQLGTKDKDDKRGSKTPGKEDRPNSKKLKPKDDKKVVKSASRDRLLSEDPPPDSTAPSQEPIDPLVMEKYTQRLHAEVYALLDNLVTDVMVLADELSSTKNVEESLRFCS
binds	CFAP73 (protein, UniProt J3QPZ5 1-306) MAVTWEEYFRLVFSEKVQPKPLEQTGDDSSVLQLILEKKEELAVADLGLQAQKKEYRSTIESVNQRWRELEQKGQELQGSVISYDKFLKEVEARRAARKAIEERKITGNLDAELRRLRTQLKELRLQRARLQRKVQRLEPCARILKRALEKRPVFEEVSDLVARFETLVSTKAALKLEEQKRLVEMESTRAQLLSLQSEKQDEMLNLNQQRTQLVEQLEAAREHRQQWESKWTEILNSASEKTLLLGRARMAVLNLYHLVRLQQGRRQTLDVRDVEGQLEEVKRFIMNISATLAKLALAQPTATAS
binds	LRGUK (protein, UniProt Q9D5S7 1-820) MAAFERNPSRWKGTRFRRGLGASRIAAQAILSLTEKQSQGRWPSFPLGLKSKGTFRSASSYLLHQLIHRSHEAEAEQEEKQQEDGESEESEESEMQNLEDKYDGILREETVAEAITGLGWSGRGTEQVYLNLNLSHCELVDISILCGYVHLQKLNLSGNRIEDLSCVSCMPYLLELNASQNKLTTFFNFKPPQNLKKVDFSSNLISEMYDLSAYHTLTQLILDNNEIEEITGLENCISLTHLSLAGNKITTIKGLGTLPIKVLSLSNNMIETITGLEELKALQNLDLSHNQISSLQGLENHDLLEVINLEDNKIKELSEIEYIENLPILRVLNLLRNPIQTKPEYWFFVIYMLLRLTELDQQKIKVEEKVFAVNKYDPPPEVVAVQDHMTHVVNSMSQPQRIWDSTLPSLDAPYPMLILTGPAACGKRELAHRLCRQFSTYFRYGACHTTRPPYFGEGDRVDYHFISQEVFDEMLNMGKFILTFNYGNHNYGLNRDTIEGIARDGLASCIHMELEGVRSLKYSYFEPRYILVVPMDKEKYEGYLRRKGLFSRAEIEIAVSRVDLYVKVNQKYPGYFDAVINADDMDIAYQKLSELIREYLGLTETAAKTLAPTADTKTSYLKCEDYSRKSSTVEFLDSTDRNYFTKLWAKLSSKKSPVERESLHRQHEAARQALMGKTPRDHTLLFQRGPVPIPTVSGQQYFATIDELQKTFELSDDLFKTPSGTYPETSKDSNISKRYSTYFHTCPWSKELPFQLPEGGISSRPGSAGSDEVDGALKALRVASSMQEKVAQHKRLSAITIMDPGSNTKPTLPPIPHGRR
binds	KIF9 (protein, UniProt Q9WV04 1-790) MGTRKKVQAFVRVRPTDDFAHEMIKYGEDNKSIDIHLKKDTRRGVVNNQQTDWSFKLDGVLHNASQDLVYETVAKDAVSQALDGYNGTIMCYGQTGAGKTYTMTGATENYKHRGILPRALQQVFRMIEERPTHAITVRVSYLEIYNENLFDLLSTLPYVGPSVTPMTIVENPQGIFIKGLSVHLTSQEEDAFSLLFEGETNRIIASHTMNKNSSRSHCIFTIYMEAHSRTLSDEKYITSKINLVDLAGSERLSKTGSEGRVLKEATYINKSLSFLEQAIIALGDQNRDHVPFRQSKLTHALKDSLGGNCNMVLVTNIYGEAAQLDETLSSLRFASRMKLVTTEPAINEKYDAERMVKNLEKELALLKQELAIHDSLSNRTLVNYDPMDEIQIAEINSQVRRYLEGTLDEIDIINLRQIQEVFNQFRVVLSQQEQEVESALRRKYTLIDKNDFAAISAVQKVGLMDIEGNLVGEPDGQSFGLGVAPFSVKPGKKPKTKKTPKDQFSSSARKEGASSPVSGKDFDVASISKTQLIPSSKDGDLKDMLARERETSSIEPLISDSPKEELRAPRPSTPPSRTVAFEEFKNERGSEINRIFKENKSILNERKKRASETTQRINAIKQEIDETKDALNFQKSLREKQGEYENKGLMIIDEEEFLLILKLKDLKKQYRNEYQELRDLRAEIQYCQRLVDQCRHRLLMEFDIWYNESFMIPEDVQVALKLGSSIRPGMVPISRIVCLGEDDQDRFSHLQQTVLPEGLDSITFYNAKVKTDQKHNYMKTMVGLQQSHRK
binds	EFHC2 (protein, UniProt Q9D485 1-750) MALPFLPGNSFNRNIGKERFHKSQHWGFCNNVRMLVSENKPGVGGDLLYGQKIKPKHSVFPKGDGTDAPSWVAFDKQVLSFDAYLEDEISDKRQEIFRIRYYKIYFYLEDDTIQVNEPEVINSGLPQGTSIRRQRIPYPPPNDDQFYTVYDFNINISVVFYGRTFKIYDCDPFTKNFLKKIGIKLNPPGQCPLDPYMKMRRETLEFVDPFRPYQSFDTLKRFIQYDGKVLRFFCLWDDSTSLFGDRREFVLHYFLCDGTVEIREVLPSNSGRDAMSSFLRRGKLPKYGPPGIYQPGQITDRAVLNVYGGLSEWRADGYLLDKYQLGKVEQDFYTDQDLSIGATINVWGRKVLLCDCDEFTKTYYRTKYGVDNFTPISCKPPHLPKIERKYPPYTGFGSEEDSFRSCVGLKPTPHRKNFKKFMELDSFGNISNILRYFGKLITHKCADVDRIFVIAFYLSDDTISVFEPIENNSGNAGGMFLKRSRVKKPGQEVFKSEFSEYIKAEELYIGATVNINGYLFILLNADEYTLNYMENNTDKFPYSNFELAIQKLKQEKSKSREITQVFAAADYNHTKVVPYNTFRDILMSITMGKLIDQELITIARHYRVPEIMDPDLAYLIARAHEKFKKNIFENFDMFIYNCVYEDREKKGVLPTKDIRRMCKSSRLPLDDDFLDCLLSRFEDKDHQINYEIFFSVLNWRMNPTPDLQAPPYLKEKCEDVWVGMPSPIPVKYVRYLDFLIDVYGLEDNML
binds	SPAG16 (protein, UniProt Q8K450 1-639) MAAPSGVPPLRVLEELGIGLSPTGEVTEAVTSEGAYYLEQVTITETSEDECEYEEIPDDNFSIPEGEEDLEKAIHIIGEQARDIHILEQQTILPARNVMQEAIEDFLCNFLIKMGMTRTLDCFQAEWYELIQKKGSDFKGLGNVPDVYSQVMLLETENKNLKKELKHFKQAAEKAKEDLLRTQKERDFHRMHHKRIVQEKNKLIADLKGLKLHYASYEPTIRVLHEKHHALLKEKMLTSLERDRAVGKISGLQATLKNIDMGHIQVPVIKGSYESASITRESGDRAGHSCEKENSSEGPTQKSLREAREEVGYKSKLKNEKKDSEFPVDMQPDPNVTSCTENVSAAKFDYKLNNIFRLHELPVSCIVMHPCRDYLISCSEDRLWKMVGLPQGNVLLTGSGHTDWLSGCCFHPSGSKLATSSGDSTIKLWDLNKGECTLTLEGHNHAVWSCTWHSCGDFVASASLDMTSKIWDVNSERCRYTLYGHTDSVNSIEFFPFSNILLTASADKTLSVWDARTGKCEQSLYGHMHSVNDATFTPRGHIIASCDARGVTKLWDFRKLIPIVSIDVGPSSGNEVNFDQSGRVLAQASANGIIHLLDLKSGQIHKLVGHESEVHSVVFSHLGENLYSGGSDGTIRLWI
binds	CFAP69 (protein, UniProt Q8BH53 1-942) MSTAEASATTADAAEAGGRTKTGSPRTIPVFGVAIPDGEMQGIFKPMDLNRIIKVLEEEDKDVSEEKQLNYIKKLIHCYQNGFPLRDLAQIFKILSLCAEKIEKQPCFVEPASDIIKLCGLPFLKKKVSDEITYTEDTANSFALLGELMKIPSSALRIQICKCIVDFYHAEPLKKHIPGYQQVSSSYKIKMVEVGGLAKAMVQSALLLENQLVEKLWVLKVLQHLSTSGVNCTLMVKAQAASGICAHLNDPDPSGQLLFRSSEVLWNLLEKSSKEEIIQQLSNLECLLALKEVFKNLFVRGHSHYERQLRNDILVITTIIAQNPGAPMIECGFTRDLILFATFNEVKSQNPLVKSLKLFNCYEDFELKKLLFNIIVILCKDLATVQLLIDGKVILALFTYVKKPERLKIMEWSAAQYEELQLHAIATLSSVAPLLIEEYMSCHGNSRILAFLEWCGHEDSYFIHGNSFHGTGGRGNKFAQMRYTLRLLRAMVYLEDETVNKDLCERGVIHQLIEIFKTMMSRPAEKEEAIALEIQSDTLLILSGLCENYIQRKEMFGTEGVDIVLHVMKTDPKNLQRGLGYNVLLFSTLDSIWCCILGCYDSEDYFLEKEGIFLLLDILALNQKKFCNLILGIMVEFCDNPKTSAHVNAWRGKKDLTAASLLIKLWRKEEKELGVKRDRNGKIVDTKRPLFTSFQEEQKTMPLPANCPSIAVMDVAENIRAKIYAVLDKLDFENLPGLSAEDFVTLCIIHRYFDFKIGEIWNEVSEEIKLEKLRLVTTDEKSLNSIIAATENIGKMVASLQSEMIENQALQDVQNEQRVYAKIQATHKQREQANKSWENFLARTSNAKTLKKAKKLQEKAIESSRYTERPQNATFHQTVIKGLNTTVPSGRVVTVQSTPTRLLGGPLADTDIALKKLPIRGGALQRVKVKPPLNDPKKSIPT
binds	ENO4 (protein, UniProt Q8C042 1-619) MGDEDGGRRGGITRDLQKLKQQAMAYYQENDVPRKLEDLLNSTFYLQPADVYGHLKANYFSKLAKPPSICKIVGKTILDGLGLPTLQVEISCTIQNFPKYICAVAIPTHFEVVENALPEALDAEDSERAQAVNTAVQWINQSITEELWGLVPSNQAEVDHRLRTFFEHKVQEDKERKELEKSQEELVPAPPPVTLPPPPPPPPPPPSKKKGQKAGRRDTLLEKPVSPPEPPEPVLHGSMAIGAVSLAVAKASATLASDPLYLTLASLKHDQEQPSTFSMPLLMGSVLSCGKSSPGKLHLMKEVICIPSPGLTAKQSVELLLEIQKQVNRAMETLPPPKQETKKGHNGSKRAQPPITGKVSHLGCLTINYDAIEQPLLLLQGICSNLGLELGVNFHLAINCAGHELMDYSKGKYEVMVGTHKSAAEMVELYVDLINKYPSIIALIDPFRKEDAEQWDSLYAALASRCYLIAGAASGSVSKLLECRNISTLKSHGLIIKHTNQTTMSDLVEITHLINGKKLLAVFGSTDSESSDDSLVDLAVGFGARFIKLGGLSRGERMTKYNRLLAIEEELIQRGVWGFSEEHNFSFFQEDATATMAEETLGLLDSIFPTEVIEESAKT
